Assay results from patent EP0331593A1, “Process for the preparation of hydroxybenzaldehydes by hydrocarbonylation” (RHONE-POULENC CHIMIE, priority 1988, dated 1989).
At least one read-out could not be matched to a standard name with certainty.

Details: halophenol

SMILES | pKa (à 25°C)
Oc1ccccc1Br [bromo-2 phénol] | 8,55
CCOc1cc(Br)ccc1O [bromo-4 éthoxy-2 phénol] | ~9,5
COc1cc(Br)ccc1O [bromo-4 méthoxy-2 phénol] | 9,5
